64 molecules from PubChem BioAssay AID493014 (National Center for Advancing Translational Sciences (NCATS), 2011) can be followed below.

As usually defined, the AC50 is the concentration giving half of the maximal activity seen.

The assay can be described thus: qHTS Assay to Find Inhibitors of Chronic Active B-Cell Receptor Signaling. The settings on record: ABC-DLBCL IkBa-CBG/CBR reporter, luminescence ratio (green luciferase fused to IkBa over red control in TMD8 lymphoma cells), 4 h. Summed up: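 Concentration-response series (up to 46 uM) were applied to TMD8 dual-reporter cells for 4 h at 37C with doxycycline. Green/red ratio, after filter-overlap correction, defined %Activity; red signal alone was normalised to basal cells and zero luminescence.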
A general note: qHTS replaces the single test concentration by a dilution series.

Where [1] appears, read: measured here: CBR red luminescence, cell number.
Where [2] appears, read: measured here: IkBa-CBG green luminescence.

The other results are listed elsewhere or left out. The main result of the screen is listed elsewhere. These columns were measured beside it and carry no call. The list favours compounds with an active or inconclusive main result. The note in brackets gives the kind of curve behind each potency; many fits are weak.

On to `O=C(CCc1ccccc1)Nc1nnc(-c2ccc3c(c2)CCCC3)o1`, for which the half-maximal activity concentration (AC50) under setting [1] is 4.61 µM [rising, partial curve, poor fit].

As to `O=C(NC(NC(=S)Nc1ccc(Cl)c(Cl)c1)C(Cl)(Cl)Cl)c1ccco1` (configuration not stated), the AC50 under setting [1] is 35.5 µM [falling, single point] and the AC50 under setting [2] was 22.4 µM [rising, single point].

For `COc1ccc2c(c1)cc(C(=O)N[C@@H](Cc1ccccc1)C(=O)O)n2C`, under setting [1], the concentration at half-maximal activity (AC50) was 2.51 µM [falling, partial curve, poor fit].

For the molecule `CC(C)OC(=O)c1cccnc1SCC(=O)Nc1ccc(C(F)(F)F)cc1Cl`, the half-maximal activity concentration (AC50) under setting [1] was 3.16 µM [rising, full curve].

For the molecule `CN(Cc1ccccc1)c1ccc2nnc(-c3ccccc3)n2n1`, the AC50 under setting [1] was 20.6 µM [falling, single point].

`Oc1ccc2ccccc2c1CN1CCN(C/C=C/c2ccccc2)CC1`: the AC50 under setting [1] was 11.2 µM [falling, single point].

As to `C/C(CC(=O)Nc1cc(Cl)ccc1Cl)=N\NC(=O)c1ccccc1Br`, under setting [1], the AC50 was 7.94 µM [falling, partial curve].

With `COc1ccc(NC(=O)Nc2ccccc2SC)cc1OC`, the half-maximal activity concentration (AC50) under setting [1] was 14.1 µM [falling, partial curve, poor fit].

Take `CC(C)=CC(=O)OCC(=O)Nc1cc(C)ccc1C`: the AC50 under setting [1] was 6.31 µM [rising, partial curve, poor fit].

For `O=C(COC(=O)c1cccs1)c1ccc2ccccc2c1`, the AC50 under setting [1] was 29.1 µM [falling, single point].

With `O=c1c2ccccc2[nH]c(=S)n1CCC1=CCCCC1`, the AC50 under setting [1] was 0.58 µM [rising, full curve, poor fit].

For `O=S(=O)(/N=C(/NC(=S)Nc1ccccc1)c1ccccc1)c1ccc(Cl)cc1`, the AC50 under setting [1] was 3.98 µM [rising, partial curve].

Take `COc1ccc(N2CCc3c(C)nc4c(OC)cc(OC)cc4c32)cc1`: under setting [1], the half-maximal activity concentration (AC50) was 8.91 µM [falling, partial curve, poor fit].

Take `Cc1ccc(Cl)cc1N1CCN(C(=O)CCCCCn2c(=O)[nH]c3ccccc3c2=O)CC1`: under setting [1], the concentration at half-maximal activity (AC50) was 35.5 µM [falling, single point].

`NNC(=O)c1ccc(COc2ccc3c(c2)CCC3)o1`: under setting [1], the AC50 was 11.6 µM [falling, partial curve].

With `C/C(=N\NC(=O)c1ccccc1O)c1c(O)cc(C)oc1=O`, the half-maximal activity concentration (AC50) under setting [1] is 2 µM [falling, full curve, poor fit].

`O=C(C(=O)N1CCCCCC1)c1c[nH]c2ccccc12`: the AC50 under setting [1] is 0.891 µM [falling, full curve, poor fit].

As for `C=CCN1N=C(/C=C/c2ccccc2)CCC1=O`, the half-maximal activity concentration (AC50) under setting [1] was 11.2 µM [rising, partial curve].

Take `CNC(=O)c1sc(-c2cccnc2)nc1C`: the half-maximal activity concentration (AC50) under setting [1] is 35.5 µM [falling, single point].

On to `Fc1ccc(-c2nnc(SCc3cccnc3)o2)cc1`, for which, under setting [1], the concentration at half-maximal activity (AC50) is 35.5 µM [falling, single point].

Turning to `CC(C)n1c(CCCO)nc2ccccc21`, the AC50 under setting [1] was 35.5 µM [rising, single point].

On to `O=C(O)C1Nc2c(C(F)(F)F)ccc(Cl)c2C2C=CCC12` (configuration not stated), for which the concentration at half-maximal activity (AC50) under setting [1] was 11.2 µM [rising, partial curve, poor fit].

As for `CC(NC(=O)C1CCC(CNc2c(N3CCOCC3)c(=O)c2=O)CC1)c1ccccc1` (configuration not stated), the half-maximal activity concentration (AC50) under setting [1] was 25.9 µM [rising, partial curve, poor fit].

In the case of `Cc1nn(C)c(C)c1S(=O)(=O)N(CC(=O)N1CCc2ccccc21)c1ccc(C(C)C)cc1`, under setting [1], the half-maximal activity concentration (AC50) was 6.51 µM [rising, single point].

For the molecule `CC(C)c1ccccc1OCC(O)CN(CC(O)COc1cccc2ccccc12)C(C)C` (configuration not stated), the concentration at half-maximal activity (AC50) under setting [1] is 35.5 µM [falling, single point].

Turning to `COc1ccccc1C(=O)Nc1ccc(S(=O)(=O)N2CCCCC2c2cccnc2)cc1` (configuration not stated), the AC50 under setting [1] is 7.08 µM [falling, partial curve].

`CCN(CC)c1ccc(S(=O)(=O)N2CCOCC2)cc1NC(=O)CN1CCc2ccccc2C1`: the AC50 under setting [1] was 15.8 µM [falling, single point].

Turning to `COc1ccc(C(=O)/C=C/Nc2ccc(C)cn2)cc1OC`, under setting [1], the AC50 was 16.4 µM [falling, single point].

`CC(=O)NCC(=O)OCc1ccc([N+](=O)[O-])cc1`: under setting [1], the half-maximal activity concentration (AC50) was 5.8 µM [rising, full curve, poor fit].

For `COc1cc2nc(NC(=O)c3ccco3)sc(=O)c2cc1OC`, the half-maximal activity concentration (AC50) under setting [1] was 3.55 µM [falling, partial curve, poor fit].

Take `C/C(CC(=O)NC(C)(C)C)=N\NC(=O)c1ccccc1N`: the half-maximal activity concentration (AC50) under setting [1] is 11.2 µM [falling, partial curve].

For the molecule `CC(C)(C)C(=O)N1CCC[C@H]1C(O)(c1ccccc1)c1ccccc1`, the AC50 under setting [1] is 29.1 µM [falling, single point].

As for `CC1Cc2ccccc2N1S(=O)(=O)c1cnc(Cl)c(Cl)c1` (configuration not stated), under setting [1], the AC50 was 3.98 µM [falling, single point].

In the case of `COc1cc(CNC(=O)OCC(C)C)cc(OC)c1OC`, under setting [1], the AC50 was 10 µM [rising, partial curve].

For `O=C(c1ccc(Cl)cc1)C1CCCN(C(=O)/C=C/c2ccccn2)C1` (configuration not stated), the AC50 under setting [1] is 6.31 µM [rising, single point].

Turning to `O=C(CN1C(=O)S/C(=C\c2ccccc2)C1=O)Nc1cc([N+](=O)[O-])ccc1O`, the half-maximal activity concentration (AC50) under setting [1] was 31.6 µM [falling, single point].

Consider `c1c2c(cc3sc(N4CCCCC4)nc13)OCO2`, for which the half-maximal activity concentration (AC50) under setting [1] was 11.2 µM [falling, single point].

In the case of `Cc1ccc2nc(NC(=O)CN3C(=O)NC4(CCCC4)C3=O)sc2c1`, the half-maximal activity concentration (AC50) under setting [1] was 8.2 µM [falling, partial curve].

For `COCCNC(=O)Cn1nc(Cc2ccncc2)c2ccccc2c1=O`, the half-maximal activity concentration (AC50) under setting [1] is 35.5 µM [rising, single point].

On to `CC(C)OCCCNc1nc2c([nH]1)c(=O)n(C)c(=O)n2C`, for which the concentration at half-maximal activity (AC50) under setting [1] was 17.8 µM [falling, single point].

For the molecule `CC(C)(C)Cc1nnc(NC(=O)c2ccco2)s1`, the AC50 under setting [1] is 12.6 µM [falling, single point].

`COc1ccc(-c2[nH]ncc2-c2cnn(-c3ccccc3)c2)c(O)c1`: the AC50 under setting [1] was 2 µM [rising, full curve, poor fit].

`Cc1ccccc1OCC(=O)N(CC(C)C)c1c(N)n(CC(C)C)c(=O)[nH]c1=O`: the half-maximal activity concentration (AC50) under setting [1] is 0.112 µM [rising, full curve, poor fit].

For the molecule `O=C(COC(=O)c1cc(S(=O)(=O)N2CCOCC2)ccc1Cl)Nc1ccccc1Cl`, the AC50 under setting [1] was 29.1 µM [falling, single point].

For `O=C(O)/C=C/C(=O)Nc1ccc(SC(F)(F)C(F)(F)C(F)(F)F)cc1`, under setting [1], the AC50 is 0.112 µM [rising, full curve, poor fit].

On to `CNCCCOc1ccc2c(c1)CCC2`, for which the concentration at half-maximal activity (AC50) under setting [1] was 8.91 µM [falling, partial curve].

`O=C(/C=C\c1cn(-c2ccccc2)nc1-c1ccccc1)Nc1nccs1`: the AC50 is 1.3 µM [falling, full curve] under setting [1] and 0.731 µM [rising, full curve, poor fit] under setting [2].

Turning to `O=C(Nc1ccccc1C(=O)O)c1cc(S(=O)(=O)N2CCCCC2)cs1`, under setting [1], the AC50 is 1.12 µM [rising, full curve, poor fit].

On to `c1cnn(-c2nc(N3CCOCC3)nc(N3CCOCC3)n2)c1`, for which the AC50 under setting [1] was 12.6 µM [falling, single point].

For the molecule `O=C(CSc1ccccc1)Nc1cccc(NC(=O)c2ccco2)c1`, the half-maximal activity concentration (AC50) under setting [1] was 10 µM [falling, partial curve, poor fit].

As for `CC(=O)N1c2ccc(Cl)cc2C2C=CCC2C1c1cccc2ccccc12` (configuration not stated), the AC50 under setting [1] was 18.4 µM [falling, single point].

For `O=C(CN1C(=O)CCC1=O)c1ccc(-c2ccccc2)cc1`, the half-maximal activity concentration (AC50) under setting [1] is 5.8 µM [rising, single point].

With `COC(=O)c1ccc(CSc2nc3ccccc3c(=O)n2-c2cccc(OC)c2)o1`, the AC50 under setting [1] is 7.94 µM [rising, partial curve, poor fit].

Turning to `C=CCC[C@@H](Cc1ccc(F)cc1)C(=O)O[C@H](CNC(=O)[C@H](CC=C)CC(=O)N(CCO)Cc1ccccc1)c1ccccc1`, the concentration at half-maximal activity (AC50) under setting [1] was 8.2 µM [falling, partial curve] and the half-maximal activity concentration (AC50) under setting [2] was 10.3 µM [rising, partial curve, poor fit].

As for `CCC(C)c1ccc(C(C)NC(=S)NCc2ccc(F)cc2)cc1` (configuration not stated), the half-maximal activity concentration (AC50) under setting [1] was 11.2 µM [falling, partial curve].

Regarding `COC(=O)C1(CCSC)NC(c2ccc(OC)cc2OC)C2C(=O)N(c3cccc(C(C)=O)c3)C(=O)C21` (configuration not stated), the half-maximal activity concentration (AC50) under setting [1] is 6.31 µM [rising, full curve, poor fit].

Regarding `COc1ccc(C)cc1-n1nnnc1SCC(=O)c1cc(C)n(Cc2ccco2)c1C`, the concentration at half-maximal activity (AC50) under setting [1] was 15.8 µM [rising, partial curve, poor fit].

For the molecule `CCS(=O)(=O)Nc1cc(-c2nc3cccnc3s2)ccc1C`, the AC50 under setting [1] is 1.64 µM [rising, partial curve, poor fit].

`CCN(CC)c1cc(C)c2cc(NC(=O)c3ccc(Br)o3)ccc2n1`: under setting [1], the concentration at half-maximal activity (AC50) is 7.08 µM [falling, partial curve, poor fit].

Turning to `N#CC(Cc1cc2ccccc2n1S(=O)(=O)c1ccccc1)OCc1ccccc1` (configuration not stated), under setting [1], the AC50 was 6.51 µM [falling, partial curve].

As for `COc1ccc(NC(=O)Cc2ccsc2)cc1S(=O)(=O)N1CCCCC1`, the AC50 under setting [1] is 0.82 µM [rising, full curve, poor fit].

Regarding `COc1cccc2sc3cc(C#Cc4ccccn4)ccc3c(=O)c12`, the AC50 under setting [1] was 3.66 µM [falling, partial curve, poor fit].

Take `CC(C)(C)c1ccccc1OCCCCCNCCO`: the AC50 under setting [1] is 29.1 µM [falling, single point].

For the molecule `CCOC(=O)C1CCN(c2nc3ccccc3nc2C(C#N)C(=O)OC(C)COC)CC1` (configuration not stated), under setting [1], the half-maximal activity concentration (AC50) is 0.0517 µM [rising, full curve, poor fit].
